# Assay results from the supplement of paper PMC8728848.
# Some of the results follow.
# B1: SUN4 (Saccharomyces cerevisiae), P53616 (protein)
# chain: MGSSHHHHHHSSGLVPRGSHNGSIYGDLADFSGPYEKFEDGTIPCGQFPSGQGVIPISWLDEGGWSGVENTDTSTGGSCKEGSYCSYACQPGMSKTQWPSDQPSDGRSIGGLLCKDGYLYRSNTDTDYLCEWGVDAAYVVSELSNDVAICRTDYPGTENMVIPTYVQAGDSLPLTVVDQDTYYTWQGLKTSAQYYVNNAGISVEDACVWGSSSSGVGNWAPLNFGAGSSDGVAYLSLIPNPNNGNALNFNVKIVAADDSSTVNGECIYENGSFSGGSDGCTVSVTAGKAKFVLYN
# How the values were obtained:
# Test in all cases: glycan array binding signal (z-score within array); higher = stronger binding
# Conditions in all cases: glycan notation: IUPAC condensed, linker removed
# [1] = molecular target: Fuc(a1-2)Gal6S(b1-3)GlcNAc
# Procedure, shortened: (§1)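 The binding signal is a Z-score computed within each array. Data were drawn from 3228 arrays in the Consortium for Functional Glycomics database, restricted to those with a known protein sequence. Scores were averaged over arrays of the same protein sequence at different concentrations or buffers, and over linkers, and negative values can be taken as non-binding.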
# [2] = molecular target: Fuc(a1-2)Gal6S(b1-3)GlcNAc6S
# Procedure, shortened: as §1
# [3] = molecular target: Fuc(a1-2)Gal6S(b1-4)Glc
# Procedure, shortened: as §1
# [4] = molecular target: Fuc(a1-2)Gal6S(b1-4)Glc6S
# Procedure, shortened: as §1
# [5] = molecular target: Fuc(a1-2)[Gal(a1-3)]Gal
# Procedure, shortened: as §1
# [6] = molecular target: Fuc(a1-2)[Gal(a1-3)]Gal(b1-3)GalNAc
# Procedure, shortened: as §1
# [7] = molecular target: Fuc(a1-2)[Gal(a1-3)]Gal(b1-3)GalNAc(b1-3)Gal(a1-4)Gal(b1-4)Glc
# Procedure, shortened: as §1
# [8] = molecular target: Fuc(a1-2)[Gal(a1-3)]Gal(b1-3)GlcNAc
# Procedure, shortened: as §1
# [9] = molecular target: Fuc(a1-2)[Gal(a1-3)]Gal(b1-3)GlcNAc(b1-2)Man(a1-3)[Fuc(a1-2)[Gal(a1-3)]Gal(b1-3)GlcNAc(b1-2)Man(a1-6)]Man(b1-4)GlcNAc(b1-4)GlcNAc
# Procedure, shortened: as §1
# [10] = molecular target: Fuc(a1-2)[Gal(a1-3)]Gal(b1-3)GlcNAc(b1-2)Man(a1-3)[Fuc(a1-2)[Gal(a1-3)]Gal(b1-3)GlcNAc(b1-2)Man(a1-6)]Man(b1-4)GlcNAc(b1-4)[Fuc(a1-6)]GlcNAc
# Procedure, shortened: as §1
# [11] = molecular target: Fuc(a1-2)[Gal(a1-3)]Gal(b1-3)GlcNAc(b1-3)GalNAc
# Procedure, shortened: as §1
# [12] = molecular target: Fuc(a1-2)[Gal(a1-3)]Gal(b1-3)GlcNAc(b1-6)GalNAc
# Procedure, shortened: as §1
# [13] = molecular target: Fuc(a1-2)[Gal(a1-3)]Gal(b1-4)Glc
# Procedure, shortened: as §1
# [14] = molecular target: Fuc(a1-2)[Gal(a1-3)]Gal(b1-4)GlcNAc
# Procedure, shortened: as §1
# [15] = molecular target: Fuc(a1-2)[Gal(a1-3)]Gal(b1-4)GlcNAc(b1-2)Man
# Procedure, shortened: as §1
# [16] = molecular target: Fuc(a1-2)[Gal(a1-3)]Gal(b1-4)GlcNAc(b1-2)Man(a1-3)[Fuc(a1-2)[Gal(a1-3)]Gal(b1-4)GlcNAc(b1-2)Man(a1-6)]Man(b1-4)GlcNAc(b1-4)GlcNAc
# Procedure, shortened: as §1
# [17] = molecular target: Fuc(a1-2)[Gal(a1-3)]Gal(b1-4)GlcNAc(b1-2)Man(a1-3)[Fuc(a1-2)[Gal(a1-3)]Gal(b1-4)GlcNAc(b1-2)Man(a1-6)]Man(b1-4)GlcNAc(b1-4)[Fuc(a1-6)]GlcNAc
# Procedure, shortened: as §1
# [18] = molecular target: Fuc(a1-2)[Gal(a1-3)]Gal(b1-4)GlcNAc(b1-3)GalNAc
# Procedure, shortened: as §1
# [19] = molecular target: Fuc(a1-2)[Gal(a1-3)]Gal(b1-4)GlcNAc(b1-3)[Fuc(a1-2)[Gal(a1-3)]Gal(b1-4)GlcNAc(b1-6)]GalNAc
# Procedure, shortened: as §1
# [20] = molecular target: Fuc(a1-2)[Gal(a1-3)]Gal(b1-4)GlcNAc(b1-6)GalNAc
# Procedure, shortened: as §1
# [21] = molecular target: Fuc(a1-2)[Gal(a1-3)]Gal(b1-4)[Fuc(a1-3)]Glc
# Procedure, shortened: as §1
# [22] = molecular target: Fuc(a1-2)[Gal(a1-3)]Gal(b1-4)[Fuc(a1-3)]GlcNAc
# Procedure, shortened: as §1
# [23] = molecular target: Fuc(a1-2)[Gal(a1-3)]Gal(b1-4)[Fuc(a1-3)]GlcNAc(b1-3)GalNAc
# Procedure, shortened: as §1
# [24] = molecular target: Fuc(a1-2)[Gal(a1-4)]Gal(b1-4)GlcNAc
# Procedure, shortened: as §1
# [25] = molecular target: Fuc(a1-2)[GalNAc(a1-3)]Gal
# Procedure, shortened: as §1
# [26] = molecular target: Fuc(a1-2)[GalNAc(a1-3)]Gal(b1-3)GalNAc(a1-3)[Fuc(a1-2)]Gal(b1-4)GlcNAc
# Procedure, shortened: as §1
# [27] = molecular target: Fuc(a1-2)[GalNAc(a1-3)]Gal(b1-3)GalNAc(b1-3)Gal(a1-4)Gal(b1-4)Glc
# Procedure, shortened: as §1
# [28] = molecular target: Fuc(a1-2)[GalNAc(a1-3)]Gal(b1-3)GlcNAc
# Procedure, shortened: as §1
# [29] = molecular target: Fuc(a1-2)[GalNAc(a1-3)]Gal(b1-3)GlcNAc(b1-2)Man(a1-3)[Fuc(a1-2)[GalNAc(a1-3)]Gal(b1-3)GlcNAc(b1-2)Man(a1-6)]Man(b1-4)GlcNAc(b1-4)GlcNAc
# Procedure, shortened: as §1
# [30] = molecular target: Fuc(a1-2)[GalNAc(a1-3)]Gal(b1-3)GlcNAc(b1-2)Man(a1-3)[Fuc(a1-2)[GalNAc(a1-3)]Gal(b1-3)GlcNAc(b1-2)Man(a1-6)]Man(b1-4)GlcNAc(b1-4)[Fuc(a1-6)]GlcNAc
# Procedure, shortened: as §1
# [31] = molecular target: Fuc(a1-2)[GalNAc(a1-3)]Gal(b1-3)GlcNAc(b1-3)GalNAc
# Procedure, shortened: as §1
# [32] = molecular target: Fuc(a1-2)[GalNAc(a1-3)]Gal(b1-3)GlcNAc(b1-6)GalNAc
# Procedure, shortened: as §1
# [33] = molecular target: Fuc(a1-2)[GalNAc(a1-3)]Gal(b1-4)Glc
# Procedure, shortened: as §1
# [34] = molecular target: Fuc(a1-2)[GalNAc(a1-3)]Gal(b1-4)GlcNAc
# Procedure, shortened: as §1
# [35] = molecular target: Fuc(a1-2)[GalNAc(a1-3)]Gal(b1-4)GlcNAc(b1-2)Man
# Procedure, shortened: as §1
# [36] = molecular target: Fuc(a1-2)[GalNAc(a1-3)]Gal(b1-4)GlcNAc(b1-2)Man(a1-3)[Fuc(a1-2)[GalNAc(a1-3)]Gal(b1-4)GlcNAc(b1-2)Man(a1-6)]Man(b1-4)GlcNAc(b1-4)GlcNAc
# Procedure, shortened: as §1
# [37] = molecular target: Fuc(a1-2)[GalNAc(a1-3)]Gal(b1-4)GlcNAc(b1-2)Man(a1-3)[Fuc(a1-2)[GalNAc(a1-3)]Gal(b1-4)GlcNAc(b1-2)Man(a1-6)]Man(b1-4)GlcNAc(b1-4)[Fuc(a1-6)]GlcNAc
# Procedure, shortened: as §1
# [38] = molecular target: Fuc(a1-2)[GalNAc(a1-3)]Gal(b1-4)GlcNAc(b1-3)Gal(b1-4)GlcNAc
# Procedure, shortened: as §1
# [39] = molecular target: Fuc(a1-2)[GalNAc(a1-3)]Gal(b1-4)GlcNAc(b1-3)Gal(b1-4)GlcNAc(b1-3)Gal(b1-4)GlcNAc
# Procedure, shortened: as §1
# [40] = molecular target: Fuc(a1-2)[GalNAc(a1-3)]Gal(b1-4)GlcNAc(b1-3)GalNAc
# Procedure, shortened: as §1
# [41] = molecular target: Fuc(a1-2)[GalNAc(a1-3)]Gal(b1-4)GlcNAc(b1-3)[Fuc(a1-2)[GalNAc(a1-3)]Gal(b1-4)GlcNAc(b1-6)]GalNAc
# Procedure, shortened: as §1
# [42] = molecular target: Fuc(a1-2)[GalNAc(a1-3)]Gal(b1-4)GlcNAc(b1-6)GalNAc
# Procedure, shortened: as §1
# [43] = molecular target: Fuc(a1-2)[GalNAc(a1-3)]Gal(b1-4)[Fuc(a1-3)]GlcNAc
# Procedure, shortened: as §1
# [44] = molecular target: Fuc(a1-2)[GalNAc(a1-3)]Gal(b1-4)[Fuc(a1-3)]GlcNAc(b1-3)GalNAc
# Procedure, shortened: as §1
# [45] = molecular target: Fuc(a1-2)[GalNAc(a1-4)]Gal(b1-4)GlcNAc
# Procedure, shortened: as §1
binder,measurement,setting,value
B1,glycan array binding signal (z-score),[1],-0.969
same,glycan array binding signal (z-score),[2],1.81
same,glycan array binding signal (z-score),[3],0.484
same,glycan array binding signal (z-score),[4],-0.372
same,glycan array binding signal (z-score),[5],0.062
same,glycan array binding signal (z-score),[6],-0.657
same,glycan array binding signal (z-score),[7],-0.573
same,glycan array binding signal (z-score),[8],-0.144
same,glycan array binding signal (z-score),[9],-0.246
same,glycan array binding signal (z-score),[10],-1.52
same,glycan array binding signal (z-score),[11],-0.997
same,glycan array binding signal (z-score),[12],-0.368
same,glycan array binding signal (z-score),[13],1.01
same,glycan array binding signal (z-score),[14],0.076
same,glycan array binding signal (z-score),[15],-0.567
same,glycan array binding signal (z-score),[16],0.938
same,glycan array binding signal (z-score),[17],-0.89
same,glycan array binding signal (z-score),[18],-0.769
same,glycan array binding signal (z-score),[19],-0.113
same,glycan array binding signal (z-score),[20],-0.415
same,glycan array binding signal (z-score),[21],-0.243
same,glycan array binding signal (z-score),[22],0.64
same,glycan array binding signal (z-score),[23],-0.487
same,glycan array binding signal (z-score),[24],0.085
same,glycan array binding signal (z-score),[25],-0.121
same,glycan array binding signal (z-score),[26],0.46
same,glycan array binding signal (z-score),[27],-0.49
same,glycan array binding signal (z-score),[28],-0.069
same,glycan array binding signal (z-score),[29],0.798
same,glycan array binding signal (z-score),[30],1.85
same,glycan array binding signal (z-score),[31],-0.065
same,glycan array binding signal (z-score),[32],-0.525
same,glycan array binding signal (z-score),[33],-0.935
same,glycan array binding signal (z-score),[34],-0.592
same,glycan array binding signal (z-score),[35],0.337
same,glycan array binding signal (z-score),[36],-0.083
same,glycan array binding signal (z-score),[37],-0.441
same,glycan array binding signal (z-score),[38],-0.267
same,glycan array binding signal (z-score),[39],-0.664
same,glycan array binding signal (z-score),[40],-0.052
same,glycan array binding signal (z-score),[41],-0.426
same,glycan array binding signal (z-score),[42],-0.607
same,glycan array binding signal (z-score),[43],-0.591
same,glycan array binding signal (z-score),[44],-0.671
same,glycan array binding signal (z-score),[45],-0.396

# Part of the list above, with bars between the fields:
binder | measurement | setting | value
B1 | glycan array binding signal (z-score) | [18] | -0.769
same | glycan array binding signal (z-score) | [21] | -0.243
